According to paper PMC10542384:
Results are given in words; binding and its absence hold for the method and conditions named. In cells and extracts the contact can be indirect. Some entries that bind do so weakly or less than the wild type. For some of these results: Where a sequence is shown, tags or fusion partners need not be part of it. Blank lines part the entries; values can stand above or below the molecule they belong to.

Chains of the proteins cited; added tags and fusions are not shown.
UniProt P54132: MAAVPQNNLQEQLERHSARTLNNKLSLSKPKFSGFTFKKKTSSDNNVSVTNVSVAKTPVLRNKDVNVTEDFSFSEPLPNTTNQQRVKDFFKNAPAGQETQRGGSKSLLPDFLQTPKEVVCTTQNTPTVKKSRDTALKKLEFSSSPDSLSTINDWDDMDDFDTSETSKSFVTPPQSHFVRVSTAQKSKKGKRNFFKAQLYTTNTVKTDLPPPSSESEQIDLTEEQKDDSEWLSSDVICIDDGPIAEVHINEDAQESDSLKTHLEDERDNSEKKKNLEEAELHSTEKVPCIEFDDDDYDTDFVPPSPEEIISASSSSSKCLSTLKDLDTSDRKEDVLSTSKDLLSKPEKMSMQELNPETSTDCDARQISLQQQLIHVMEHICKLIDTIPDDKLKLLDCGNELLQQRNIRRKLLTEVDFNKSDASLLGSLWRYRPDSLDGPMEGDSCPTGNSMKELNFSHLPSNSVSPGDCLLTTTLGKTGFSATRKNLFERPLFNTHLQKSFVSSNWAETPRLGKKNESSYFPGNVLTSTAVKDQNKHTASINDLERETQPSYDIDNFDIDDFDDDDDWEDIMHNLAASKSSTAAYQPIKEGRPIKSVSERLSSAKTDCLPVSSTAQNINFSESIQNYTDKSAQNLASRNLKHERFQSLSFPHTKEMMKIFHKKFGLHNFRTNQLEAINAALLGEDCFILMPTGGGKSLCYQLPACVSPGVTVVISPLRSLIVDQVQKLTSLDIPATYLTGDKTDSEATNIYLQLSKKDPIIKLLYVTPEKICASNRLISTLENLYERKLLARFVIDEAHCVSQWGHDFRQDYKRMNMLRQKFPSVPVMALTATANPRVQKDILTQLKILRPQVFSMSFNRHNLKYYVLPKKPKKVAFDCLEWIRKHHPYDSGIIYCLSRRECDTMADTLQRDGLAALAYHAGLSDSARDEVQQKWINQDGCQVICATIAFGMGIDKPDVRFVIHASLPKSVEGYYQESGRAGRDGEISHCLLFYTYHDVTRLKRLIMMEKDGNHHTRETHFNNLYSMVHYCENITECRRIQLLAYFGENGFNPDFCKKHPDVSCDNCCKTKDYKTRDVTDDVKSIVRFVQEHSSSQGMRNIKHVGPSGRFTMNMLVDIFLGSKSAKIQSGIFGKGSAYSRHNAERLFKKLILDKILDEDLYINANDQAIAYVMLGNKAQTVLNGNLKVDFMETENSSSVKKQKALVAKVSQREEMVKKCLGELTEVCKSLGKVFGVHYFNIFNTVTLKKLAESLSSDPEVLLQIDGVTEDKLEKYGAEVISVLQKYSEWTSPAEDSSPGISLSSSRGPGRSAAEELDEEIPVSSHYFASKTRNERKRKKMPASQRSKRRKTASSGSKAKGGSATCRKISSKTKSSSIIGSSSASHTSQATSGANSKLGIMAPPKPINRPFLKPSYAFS

Tests used:
[1] = target: T1, RNF111 (Arkadia) (human (endogenous in 293T, U2OS)) (UniProt Q6ZNA4); experiment: proximity ligation; Duolink PLA on fixed and permeabilised cells (U2OS WT or KO cells complemented with the named constructs; Fig. 4d and 5b in cells expressing GFP-PML)
T1 sequence: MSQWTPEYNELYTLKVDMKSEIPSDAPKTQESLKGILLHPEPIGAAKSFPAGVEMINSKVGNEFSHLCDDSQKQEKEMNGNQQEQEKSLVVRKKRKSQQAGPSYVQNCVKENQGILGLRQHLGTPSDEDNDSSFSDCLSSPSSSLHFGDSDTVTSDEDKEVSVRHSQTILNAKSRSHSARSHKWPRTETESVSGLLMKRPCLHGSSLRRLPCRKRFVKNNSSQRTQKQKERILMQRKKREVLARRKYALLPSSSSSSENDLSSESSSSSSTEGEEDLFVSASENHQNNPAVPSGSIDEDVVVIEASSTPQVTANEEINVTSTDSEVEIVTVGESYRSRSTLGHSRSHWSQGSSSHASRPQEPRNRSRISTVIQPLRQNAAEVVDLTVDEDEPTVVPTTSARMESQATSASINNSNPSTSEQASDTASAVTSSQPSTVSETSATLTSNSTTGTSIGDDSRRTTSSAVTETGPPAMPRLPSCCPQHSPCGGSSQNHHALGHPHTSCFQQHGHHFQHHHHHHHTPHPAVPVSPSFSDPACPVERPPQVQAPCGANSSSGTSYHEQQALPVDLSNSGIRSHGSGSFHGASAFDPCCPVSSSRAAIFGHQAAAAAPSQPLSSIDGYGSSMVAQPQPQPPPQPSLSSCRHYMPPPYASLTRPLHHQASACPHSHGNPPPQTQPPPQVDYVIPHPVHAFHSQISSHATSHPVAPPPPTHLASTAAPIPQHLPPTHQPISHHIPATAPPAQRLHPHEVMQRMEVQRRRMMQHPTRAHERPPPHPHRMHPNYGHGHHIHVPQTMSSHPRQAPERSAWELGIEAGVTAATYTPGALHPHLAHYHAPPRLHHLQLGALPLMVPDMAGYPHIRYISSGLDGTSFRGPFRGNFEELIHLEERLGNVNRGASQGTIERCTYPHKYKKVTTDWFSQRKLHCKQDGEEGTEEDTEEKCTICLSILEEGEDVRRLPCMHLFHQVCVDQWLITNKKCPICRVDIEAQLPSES

[2] = target: T2, HA-tagged RNF111 wild type (RNF111^WT) (UniProt Q6ZNA4); experiment: co-IP; Flag/HA beads or antibodies on Protein A/G beads with lysates of 293T or U2OS cells in modified NETN buffer (20 mM Tris-HCl pH 7.6, 95 mM NaCl, 1 mM EDTA, 0.5% Nonidet P-40), 4 °C overnight, blot; Fig. 6j with or without the CK2 inhibitor TBB
T2 sequence: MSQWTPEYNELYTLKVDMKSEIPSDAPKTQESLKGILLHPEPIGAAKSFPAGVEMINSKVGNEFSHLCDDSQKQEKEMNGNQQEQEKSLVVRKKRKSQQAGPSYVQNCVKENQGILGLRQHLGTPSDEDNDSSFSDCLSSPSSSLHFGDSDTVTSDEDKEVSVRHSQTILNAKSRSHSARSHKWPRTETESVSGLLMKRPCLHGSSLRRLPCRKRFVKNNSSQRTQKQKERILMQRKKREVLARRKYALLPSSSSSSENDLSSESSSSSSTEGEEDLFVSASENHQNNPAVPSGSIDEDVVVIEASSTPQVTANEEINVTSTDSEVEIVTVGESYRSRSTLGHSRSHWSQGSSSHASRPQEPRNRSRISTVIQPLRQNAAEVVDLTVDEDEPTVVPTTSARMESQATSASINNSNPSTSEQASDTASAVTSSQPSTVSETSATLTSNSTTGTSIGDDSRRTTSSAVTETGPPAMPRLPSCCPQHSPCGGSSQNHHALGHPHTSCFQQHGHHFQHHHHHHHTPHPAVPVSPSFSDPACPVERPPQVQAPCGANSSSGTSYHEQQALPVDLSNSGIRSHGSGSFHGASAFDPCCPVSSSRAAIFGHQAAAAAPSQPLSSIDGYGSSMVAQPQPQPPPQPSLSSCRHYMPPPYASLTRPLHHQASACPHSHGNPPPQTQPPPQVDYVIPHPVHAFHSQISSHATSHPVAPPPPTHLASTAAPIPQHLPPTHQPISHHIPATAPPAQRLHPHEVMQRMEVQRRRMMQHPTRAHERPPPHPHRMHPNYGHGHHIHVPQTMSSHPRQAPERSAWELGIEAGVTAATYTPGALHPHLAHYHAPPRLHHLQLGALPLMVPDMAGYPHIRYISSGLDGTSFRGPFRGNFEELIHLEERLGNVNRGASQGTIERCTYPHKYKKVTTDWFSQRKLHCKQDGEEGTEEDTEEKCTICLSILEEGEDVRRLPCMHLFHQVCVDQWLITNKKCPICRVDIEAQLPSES

GFP-ARKL1 = target: T3, GFP-ARKL1 (UniProt Q96B23); experiment: as above
T3 sequence: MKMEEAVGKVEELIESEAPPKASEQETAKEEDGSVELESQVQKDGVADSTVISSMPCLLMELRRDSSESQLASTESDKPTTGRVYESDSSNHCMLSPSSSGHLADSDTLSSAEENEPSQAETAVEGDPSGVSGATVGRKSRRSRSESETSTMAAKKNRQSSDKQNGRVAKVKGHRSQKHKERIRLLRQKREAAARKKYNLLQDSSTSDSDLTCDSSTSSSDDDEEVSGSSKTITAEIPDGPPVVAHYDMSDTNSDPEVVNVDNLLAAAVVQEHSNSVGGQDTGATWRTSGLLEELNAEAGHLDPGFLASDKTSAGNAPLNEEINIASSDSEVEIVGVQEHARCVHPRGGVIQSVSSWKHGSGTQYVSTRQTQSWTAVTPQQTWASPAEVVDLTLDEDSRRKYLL

[3] = target: T4, Arkadia-like 1 (ARKL1) (human (endogenous in U2OS)) (UniProt Q96B23); experiment: proximity ligation; Duolink PLA on fixed and permeabilised cells (U2OS WT or KO cells complemented with the named constructs; Fig. 4d and 5b in cells expressing GFP-PML)
T4 sequence: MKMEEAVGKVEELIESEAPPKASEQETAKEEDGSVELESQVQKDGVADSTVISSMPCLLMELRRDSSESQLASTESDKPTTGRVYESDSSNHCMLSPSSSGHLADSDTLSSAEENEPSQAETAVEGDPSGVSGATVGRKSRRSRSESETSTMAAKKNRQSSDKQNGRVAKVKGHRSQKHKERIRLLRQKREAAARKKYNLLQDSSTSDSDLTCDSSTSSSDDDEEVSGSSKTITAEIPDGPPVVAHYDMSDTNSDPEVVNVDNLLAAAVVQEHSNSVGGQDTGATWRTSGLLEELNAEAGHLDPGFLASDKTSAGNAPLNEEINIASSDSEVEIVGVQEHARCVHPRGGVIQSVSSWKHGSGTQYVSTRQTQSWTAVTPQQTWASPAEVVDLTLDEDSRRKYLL

- binding [1]: binds
- binding [2]: binds
Molecule: Bloom syndrome helicase (BLM) (from UniProt P54132 1-1417)

- binding (GFP-ARKL1): binds
B1: HA-Flag-tagged RNF111 wild type (RNF111^WT) (protein, UniProt Q6ZNA4 1-994)
chain: MSQWTPEYNELYTLKVDMKSEIPSDAPKTQESLKGILLHPEPIGAAKSFPAGVEMINSKVGNEFSHLCDDSQKQEKEMNGNQQEQEKSLVVRKKRKSQQAGPSYVQNCVKENQGILGLRQHLGTPSDEDNDSSFSDCLSSPSSSLHFGDSDTVTSDEDKEVSVRHSQTILNAKSRSHSARSHKWPRTETESVSGLLMKRPCLHGSSLRRLPCRKRFVKNNSSQRTQKQKERILMQRKKREVLARRKYALLPSSSSSSENDLSSESSSSSSTEGEEDLFVSASENHQNNPAVPSGSIDEDVVVIEASSTPQVTANEEINVTSTDSEVEIVTVGESYRSRSTLGHSRSHWSQGSSSHASRPQEPRNRSRISTVIQPLRQNAAEVVDLTVDEDEPTVVPTTSARMESQATSASINNSNPSTSEQASDTASAVTSSQPSTVSETSATLTSNSTTGTSIGDDSRRTTSSAVTETGPPAMPRLPSCCPQHSPCGGSSQNHHALGHPHTSCFQQHGHHFQHHHHHHHTPHPAVPVSPSFSDPACPVERPPQVQAPCGANSSSGTSYHEQQALPVDLSNSGIRSHGSGSFHGASAFDPCCPVSSSRAAIFGHQAAAAAPSQPLSSIDGYGSSMVAQPQPQPPPQPSLSSCRHYMPPPYASLTRPLHHQASACPHSHGNPPPQTQPPPQVDYVIPHPVHAFHSQISSHATSHPVAPPPPTHLASTAAPIPQHLPPTHQPISHHIPATAPPAQRLHPHEVMQRMEVQRRRMMQHPTRAHERPPPHPHRMHPNYGHGHHIHVPQTMSSHPRQAPERSAWELGIEAGVTAATYTPGALHPHLAHYHAPPRLHHLQLGALPLMVPDMAGYPHIRYISSGLDGTSFRGPFRGNFEELIHLEERLGNVNRGASQGTIERCTYPHKYKKVTTDWFSQRKLHCKQDGEEGTEEDTEEKCTICLSILEEGEDVRRLPCMHLFHQVCVDQWLITNKKCPICRVDIEAQLPSES

- binding [3]: binds
B2: HA-RNF111 wild type (HA-RNF111^WT) in RNF111 KO U2OS cells (protein, UniProt Q6ZNA4 1-994)
chain: MSQWTPEYNELYTLKVDMKSEIPSDAPKTQESLKGILLHPEPIGAAKSFPAGVEMINSKVGNEFSHLCDDSQKQEKEMNGNQQEQEKSLVVRKKRKSQQAGPSYVQNCVKENQGILGLRQHLGTPSDEDNDSSFSDCLSSPSSSLHFGDSDTVTSDEDKEVSVRHSQTILNAKSRSHSARSHKWPRTETESVSGLLMKRPCLHGSSLRRLPCRKRFVKNNSSQRTQKQKERILMQRKKREVLARRKYALLPSSSSSSENDLSSESSSSSSTEGEEDLFVSASENHQNNPAVPSGSIDEDVVVIEASSTPQVTANEEINVTSTDSEVEIVTVGESYRSRSTLGHSRSHWSQGSSSHASRPQEPRNRSRISTVIQPLRQNAAEVVDLTVDEDEPTVVPTTSARMESQATSASINNSNPSTSEQASDTASAVTSSQPSTVSETSATLTSNSTTGTSIGDDSRRTTSSAVTETGPPAMPRLPSCCPQHSPCGGSSQNHHALGHPHTSCFQQHGHHFQHHHHHHHTPHPAVPVSPSFSDPACPVERPPQVQAPCGANSSSGTSYHEQQALPVDLSNSGIRSHGSGSFHGASAFDPCCPVSSSRAAIFGHQAAAAAPSQPLSSIDGYGSSMVAQPQPQPPPQPSLSSCRHYMPPPYASLTRPLHHQASACPHSHGNPPPQTQPPPQVDYVIPHPVHAFHSQISSHATSHPVAPPPPTHLASTAAPIPQHLPPTHQPISHHIPATAPPAQRLHPHEVMQRMEVQRRRMMQHPTRAHERPPPHPHRMHPNYGHGHHIHVPQTMSSHPRQAPERSAWELGIEAGVTAATYTPGALHPHLAHYHAPPRLHHLQLGALPLMVPDMAGYPHIRYISSGLDGTSFRGPFRGNFEELIHLEERLGNVNRGASQGTIERCTYPHKYKKVTTDWFSQRKLHCKQDGEEGTEEDTEEKCTICLSILEEGEDVRRLPCMHLFHQVCVDQWLITNKKCPICRVDIEAQLPSES
